US20260201068A1 (UNIVERSIT DE GEN VE, published 2026)
No constants are given. Whether binding was seen depends on the method and setting. Some entries that bind do so weakly or less than the wild type. Where a sequence is shown, tags or fusion partners need not be part of it.

Sequences of proteins named here, by UniProt entry; tags and fusion partners are left off. Residues count along the entry.
UniProt P23471, residues 25-413: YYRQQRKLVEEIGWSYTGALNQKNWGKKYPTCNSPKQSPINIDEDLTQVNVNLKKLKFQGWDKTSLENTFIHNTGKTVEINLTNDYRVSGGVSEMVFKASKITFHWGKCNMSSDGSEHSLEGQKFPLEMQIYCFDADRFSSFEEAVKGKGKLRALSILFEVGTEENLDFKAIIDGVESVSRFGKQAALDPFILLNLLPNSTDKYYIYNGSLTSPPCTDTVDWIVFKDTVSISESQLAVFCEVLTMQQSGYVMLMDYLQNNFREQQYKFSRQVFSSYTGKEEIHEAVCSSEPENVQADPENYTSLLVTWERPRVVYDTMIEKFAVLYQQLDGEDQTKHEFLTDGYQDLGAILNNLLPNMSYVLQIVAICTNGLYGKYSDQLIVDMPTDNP

Target: human PTPRZ1 extracellular portion (domains 1 plus 2) knocked in and shown on Ge518_PTPRZ1-KI cells (human) (UniProt P23471)
Experiment: flow cytometry on Ge518_PTPRZ1-KI cells, scFv conjugated to rabbit Fc, anti-rabbit IgG AlexaFluo488

binding: binds
B1: anti-PTPRZ1 scFv RRB471 conjugated to a rabbit Fc (Fc fusion)
scFv: MAEVQLVESGGGLVQPGGSLRLSCAASGFTFSSYSMNWVRQAPGKGLEWVSYISSSSSTIYYADSVKGRFTISRDNAKNSLYLQMNSLRAEDTAVYYCARPGYGDFPGAFDIWGQGTLVTVSSGGGGSGGGGSGGGGSTQSALTQPASVSGSPGQSITISCTGTSSDVGGYNYVSWYQQHPGKAPKLMIYEVSNRPSGVSNRFSGSKSGNTASLTISGLQAEDEADYYCSSYDWATYGSVFGGGTKLTVLGAA
notes: scFv conjugated to a rabbit Fc for flow cytometry; not shown: rabbit Fc
